Experimental data: PubChem BioAssay AID686938 (Drosophila RNAi Screening Center, 2013)

- Test: 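Looking for CRAC channel components and the factors controlling them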 (primary screen)
- Cells: Drosophila S2R+ cells
- Reagent: long dsRNA against Drosophila genes, about 0.25 µg dsRNA per well, roughly 10,000 cells
- Time to read-out: 5 days of knock-down before the calcium assay
- Challenge: thapsigargin (SERCA pump blocker) to empty calcium stores; entry signal taken 4 min after adding it
- Read-out: 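Per-well fluo-4 fluorescence in two replicates, unnormalised, measured in resting cells and 4 min after store depletion by the SERCA blocker thapsigargin; ratio of the two present in few wells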
- Reading the numbers: calcium entry signal: higher = stronger calcium signal after store depletion; resting calcium signal: higher = higher resting calcium signal
- Call rule: 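Hit if the duplicate-averaged plate z-score for entry over resting signal is under −3; wells with weak total dye signal (Fmax z < −2) or more than 5 off-targets removed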
- Meaning of the calls: active = strongly reduced calcium entry; inactive = no strong reduction
The deposit covers about 23,000 reagents; below is a random part of those with a known target gene and a result. Of all reagents, 75 (0.33%) got an active call. 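Raw plate signals without normalisation; calls rest on plate z-scores that were not deposited; ratio present for only 364 wells.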 Entries without a mark were called inactive. A plus sign joins genes that one reagent is predicted to hit. Not given: the dose of the treatment.

l(3)04053 (lethal (3) 04053) [DRSC11640]
- calcium entry signal, replicate 1 (fluorescence units): 2.92e7
- calcium entry signal, replicate 2 (fluorescence units): 4.58e7
- resting calcium signal, replicate 1 (fluorescence units): 1.43e7
- resting calcium signal, replicate 2 (fluorescence units): 2.51e7

CG5516 [DRSC15826]
- calcium entry signal, replicate 1 (fluorescence units): 4.80e7
- calcium entry signal, replicate 2 (fluorescence units): 7.98e7
- resting calcium signal, replicate 1 (fluorescence units): 2.22e7
- resting calcium signal, replicate 2 (fluorescence units): 7.67e7

CG5516 [DRSC21753]
- calcium entry signal, replicate 1 (fluorescence units): 2.77e7
- calcium entry signal, replicate 2 (fluorescence units): 3.77e7
- resting calcium signal, replicate 1 (fluorescence units): 1.37e7
- resting calcium signal, replicate 2 (fluorescence units): 1.60e7

CG3511 [DRSC04382]
- calcium entry signal, replicate 1 (fluorescence units): 3.65e7
- resting calcium signal, replicate 1 (fluorescence units): 1.80e7

Dr (Drop) [DRSC17002]
- calcium entry signal, replicate 1 (fluorescence units): 3.06e7
- calcium entry signal, replicate 2 (fluorescence units): 4.88e7
- resting calcium signal, replicate 1 (fluorescence units): 1.48e7
- resting calcium signal, replicate 2 (fluorescence units): 2.48e7

Dr (Drop) [DRSC22708]
- calcium entry signal, replicate 1 (fluorescence units): 3.61e7
- calcium entry signal, replicate 2 (fluorescence units): 2.75e7
- resting calcium signal, replicate 1 (fluorescence units): 2.00e7
- resting calcium signal, replicate 2 (fluorescence units): 1.34e7

CG34227 [DRSC06788]
- calcium entry signal, replicate 1 (fluorescence units): 2.66e7
- calcium entry signal, replicate 2 (fluorescence units): 2.90e7
- resting calcium signal, replicate 1 (fluorescence units): 1.36e7
- resting calcium signal, replicate 2 (fluorescence units): 1.24e7

CG34227 [DRSC07034]
- calcium entry signal, replicate 1 (fluorescence units): 3.01e7
- calcium entry signal, replicate 2 (fluorescence units): 2.58e7
- resting calcium signal, replicate 1 (fluorescence units): 1.43e7
- resting calcium signal, replicate 2 (fluorescence units): 1.18e7

CG33286 [DRSC11691]
- calcium entry signal, replicate 1 (fluorescence units): 2.99e7
- calcium entry signal, replicate 2 (fluorescence units): 5.09e7
- resting calcium signal, replicate 1 (fluorescence units): 1.54e7
- resting calcium signal, replicate 2 (fluorescence units): 2.22e7

para (paralytic) [DRSC19141]
- calcium entry signal, replicate 1 (fluorescence units): 3.63e7
- calcium entry signal, replicate 2 (fluorescence units): 4.60e7
- resting calcium signal, replicate 1 (fluorescence units): 1.82e7
- resting calcium signal, replicate 2 (fluorescence units): 2.02e7

para (paralytic) [DRSC20360]
- calcium entry signal, replicate 1 (fluorescence units): 2.00e7
- calcium entry signal, replicate 2 (fluorescence units): 2.62e7
- resting calcium signal, replicate 1 (fluorescence units): 1.16e7
- resting calcium signal, replicate 2 (fluorescence units): 1.17e7

CG34316 + asRNA:CR43471 [DRSC13080]
- calcium entry signal, replicate 1 (fluorescence units): 4.03e7
- calcium entry signal, replicate 2 (fluorescence units): 4.23e7
- resting calcium signal, replicate 1 (fluorescence units): 2.26e7
- resting calcium signal, replicate 2 (fluorescence units): 1.81e7
